# Reference: PubChem BioAssay AID1479 (National Center for Advancing Translational Sciences (NCATS), 2009)
# The whole screen tested about 280,000 compounds, of which about 820 (0.29%) were called active. The source calls these results inconclusive, neither active nor inactive. The call rests on the fitted dose curve; in most records, active means well fitted curve in either direction with a large enough effect; inconclusive means small, poorly fitted or top-dose-only effect; inactive means flat fitted curve, though single readings scatter.
# Test: Total Fluorescence Counterscreen for Inhibitors of the Interaction of Thyroid Hormone Receptor and Steroid Receptor Coregulator 2
# Conditions: TRb/SRC2 Texas Red total fluorescence interference
# Potency means the concentration at half of the fitted maximal effect.
row,SMILES,Potency
1,O=C(NCC1(N2CCOCC2)CCCCC1)c1ccccc1Br,inconclusive: 1.58 µM
2,O=C(NCC1(N2CCOCC2)CCCCC1)c1ccc(Cl)cc1,inconclusive: 100 µM
